Data on two molecules can be found in paper PMC11982200.

Amino acid sequences for entries named in this document (tags omitted). A change or cut given only in a name is not applied to a line headed by its entry. Chains listed by the source or under a name are the forms on record and can include a tag or linker. Residues count along the entry.
kidney-type glutaminase (GLS1) isoform KGA, endogenous (human (endogenous in HB cell lines HepG2/HUH6)) (O94925, residues 55-669): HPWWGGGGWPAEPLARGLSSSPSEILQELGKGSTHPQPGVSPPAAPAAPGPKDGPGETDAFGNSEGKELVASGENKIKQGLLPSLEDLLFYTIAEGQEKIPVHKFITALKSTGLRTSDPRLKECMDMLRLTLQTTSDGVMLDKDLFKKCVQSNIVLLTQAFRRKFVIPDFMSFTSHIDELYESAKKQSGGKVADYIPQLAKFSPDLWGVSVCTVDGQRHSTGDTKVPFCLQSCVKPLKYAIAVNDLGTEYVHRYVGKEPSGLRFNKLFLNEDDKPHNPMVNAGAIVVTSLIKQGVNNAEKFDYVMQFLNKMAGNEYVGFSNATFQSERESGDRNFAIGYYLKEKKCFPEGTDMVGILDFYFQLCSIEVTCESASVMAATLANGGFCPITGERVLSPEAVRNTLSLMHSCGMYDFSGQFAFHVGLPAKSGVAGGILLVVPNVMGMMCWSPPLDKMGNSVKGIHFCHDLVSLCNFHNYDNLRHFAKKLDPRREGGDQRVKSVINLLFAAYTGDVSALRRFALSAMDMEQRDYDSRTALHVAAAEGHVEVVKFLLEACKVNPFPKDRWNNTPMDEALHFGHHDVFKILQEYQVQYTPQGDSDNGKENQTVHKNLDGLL
glutaminase C (GAC), splice variant of GLS1, endogenous (human (endogenous in HB cell lines HepG2/HUH6)) (O94925, form named): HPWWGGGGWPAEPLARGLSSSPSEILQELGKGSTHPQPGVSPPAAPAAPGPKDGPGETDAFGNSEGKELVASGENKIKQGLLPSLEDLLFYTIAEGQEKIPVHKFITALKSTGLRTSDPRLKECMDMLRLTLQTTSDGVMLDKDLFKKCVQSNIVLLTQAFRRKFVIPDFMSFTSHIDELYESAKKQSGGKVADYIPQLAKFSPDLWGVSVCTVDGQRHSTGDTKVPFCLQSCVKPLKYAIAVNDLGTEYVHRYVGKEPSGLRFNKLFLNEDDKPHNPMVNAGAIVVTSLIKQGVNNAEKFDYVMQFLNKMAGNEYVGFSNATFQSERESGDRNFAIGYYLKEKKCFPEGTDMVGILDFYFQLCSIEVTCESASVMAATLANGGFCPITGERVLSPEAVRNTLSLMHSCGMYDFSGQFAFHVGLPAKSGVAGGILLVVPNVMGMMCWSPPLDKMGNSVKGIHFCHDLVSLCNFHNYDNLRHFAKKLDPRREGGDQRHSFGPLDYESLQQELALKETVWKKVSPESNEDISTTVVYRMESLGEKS

These are yes or no findings as the source states them, for the method shown. Binding seen in cells or lysates may run through a third protein. Some binding calls cover weakened binding; strength is not graded here.

Experiment in all cases: co-IP; endogenous proteins in HB cell lysate (Western/IP lysis buffer); specific primary antibody (anti-KGA, anti-GAC or anti-OGT) or IgG control with Protein A/G PLUS-Agarose overnight at 4 °C, five washes, Western blot
(Immunoblotting shows a protein as a band on a membrane.)

Test [1] deals with T1, OGT, endogenous (human (endogenous in HB cell lines HepG2/HUH6)) (UniProt O15294).
T1 sequence: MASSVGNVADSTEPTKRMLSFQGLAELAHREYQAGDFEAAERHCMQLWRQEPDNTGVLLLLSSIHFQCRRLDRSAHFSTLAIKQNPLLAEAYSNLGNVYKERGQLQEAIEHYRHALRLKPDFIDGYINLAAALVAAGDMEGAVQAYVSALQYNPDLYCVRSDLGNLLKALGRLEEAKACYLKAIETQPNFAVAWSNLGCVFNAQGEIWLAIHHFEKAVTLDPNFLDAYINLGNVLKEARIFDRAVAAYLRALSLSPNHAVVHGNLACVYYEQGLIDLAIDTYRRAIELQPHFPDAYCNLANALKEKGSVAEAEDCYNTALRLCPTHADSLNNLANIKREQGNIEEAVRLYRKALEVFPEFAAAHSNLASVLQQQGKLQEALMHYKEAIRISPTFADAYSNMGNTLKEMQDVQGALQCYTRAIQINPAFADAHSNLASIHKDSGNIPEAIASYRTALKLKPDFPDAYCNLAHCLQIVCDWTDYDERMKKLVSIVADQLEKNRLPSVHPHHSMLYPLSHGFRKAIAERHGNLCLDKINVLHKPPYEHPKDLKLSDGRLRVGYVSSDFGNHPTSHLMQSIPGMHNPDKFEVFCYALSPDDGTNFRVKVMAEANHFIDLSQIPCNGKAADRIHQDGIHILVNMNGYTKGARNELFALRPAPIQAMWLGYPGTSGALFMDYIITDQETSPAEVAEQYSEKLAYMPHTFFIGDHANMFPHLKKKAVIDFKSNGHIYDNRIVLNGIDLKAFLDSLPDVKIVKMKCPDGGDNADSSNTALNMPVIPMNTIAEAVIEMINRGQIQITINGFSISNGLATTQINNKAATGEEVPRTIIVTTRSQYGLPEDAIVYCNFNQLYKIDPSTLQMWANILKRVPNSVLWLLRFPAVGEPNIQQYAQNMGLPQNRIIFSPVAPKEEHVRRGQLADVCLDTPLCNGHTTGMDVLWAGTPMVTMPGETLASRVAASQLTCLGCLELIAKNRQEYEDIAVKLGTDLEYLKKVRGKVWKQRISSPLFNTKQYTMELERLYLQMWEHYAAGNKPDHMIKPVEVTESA

Test [2] deals with glutaminase C (GAC), splice variant of GLS1, endogenous (human (endogenous in HB cell lines HepG2/HUH6)) (UniProt O94925).
In test [3] the target is kidney-type glutaminase (GLS1) isoform KGA, endogenous (human (endogenous in HB cell lines HepG2/HUH6)) (UniProt O94925).

For the molecule “kidney-type glutaminase (GLS1) isoform KGA, endogenous (from UniProt O94925 55-669) (enzyme)”, the binding entry in test [1] is listed as “binds”.

B1: OGT, endogenous (enzyme, UniProt O15294 1-1046)
chain: T1 sequence
B1: the binding result in test [2] is “no binding”; in test [3], “binds”.
